This is an account of results in PubChem BioAssay AID214 (DTP/NCI, 2004).

SMILES strings stand for the structures. The list is a part of this screen's results and no random one: it gathers tests that were run many times, whatever their T/C, doses with no T/C, and many T/C values between a quarter and a half above the control. Further doses and runs are listed elsewhere. T/C is the treated group as % of the vehicle group. Schedule codes are those of the source, read here as Q, the interval in days (D) or hours (H), X, the number of doses. Some T/C values carry the count of animals alive at the toxicity check (mostly the fifth day); where none is given, no animal had died by that day. Some doses were run more than once; their values stand side by side, smallest first. Some entries give survivors of the animals treated and no T/C: the source holds a T/C of zero for them, seemingly a mark for toxic or unscored doses. Some doses without a T/C left all or most animals alive at the check, yet need not have been tolerated: the source hardly ever lists a survival T/C far under the control, and the zero likely stands for such cases as well. Survivors were counted at the toxicity check, usually on the fifth day, unless a day is given; later deaths do not show. For survival time, the PubChem record calls one and a half times the control and up active, and a quarter to a half above the control has no call in these data; cut-offs in other NCI protocols can differ.

The subject of the assay is B6C3F1 mice, colon carcinoma 38 s.c., T/C. Kind of assay: NCI In Vivo Anticancer Drug Screen. Data for tumor model Colon Carcinoma 38 (subcutaneous) in B6C3F1 mice. The method, then: The antitumor activity of compounds was measured in mice bearing transplantable tumors. Survival or tumor size were measured and the results are expressed as the measurement made in the treated group (T) divided by the measurement made in the vehicle treated control group (C). The tumor model used in this assay is Colon Carcinoma 38 (subcutaneous) in B6C3F1 mice

The mark [1] stands for this setting: T/C endpoint: median tumor weight (est.), dose: 800.0 mg/kg/injection, schedule: Q07DX002 (ip), vehicle: suspension in saline, higher T/C = larger tumour.
Where [2] appears, read: T/C endpoint: median tumor weight (est.), dose: 400.0 mg/kg/injection, schedule: Q07DX002 (ip), vehicle: saline with Tween-80, higher T/C = larger tumour.

As for `O=c1[nH]cnc2nc(/N=N/SCCO)[nH]c12`, the survivor count is given as 6 of 10 on day 20 (T/C endpoint: median tumor weight (est.), dose: 400.0 mg/kg/injection, schedule: Q07DX002 (ip), vehicle: Klucel (hydroxypropylcellulose) (HPC), higher T/C = larger tumour) and 0 of 10 on day 20 (T/C endpoint: median tumor weight (est.), dose: 800.0 mg/kg/injection, schedule: Q07DX002 (ip), vehicle: Klucel (hydroxypropylcellulose) (HPC), higher T/C = larger tumour).

As to `S=P(N1CC1)(N1CC1)N1CC1`, the survivor count (T/C endpoint: median tumor weight (est.), dose: 24.0 mg/kg/injection, schedule: Q07DX003 (ip), vehicle: saline, higher T/C = larger tumour) is 1 of 10 on day 20.

As to `Cc1cc(NS(=O)(=O)c2ccc(N=Nc3cc(N=Nc4ccc(S(=O)(=O)Nc5cc(C)nc(C)n5)cc4)c4c(NC(=O)C(Cl)Cl)cccc4c3OC(=O)C(Cl)Cl)cc2)nc(C)n1` (tested in a mixture with another compound), the T/C reads like this: (T/C endpoint: median tumor weight (est.), dose: 50.0 mg/kg/injection, schedule: Q07DX002 (ip), vehicle: suspension in saline, evaluated on day 20, higher T/C = larger tumour) 136 % of control [9 of 10 alive on day 20]; (T/C endpoint: median tumor weight (est.), dose: 100.0 mg/kg/injection, schedule: Q07DX002 (ip), vehicle: suspension in saline, evaluated on day 20, higher T/C = larger tumour) 133 % of control; (T/C endpoint: median tumor weight (est.), dose: 200.0 mg/kg/injection, schedule: Q07DX002 (ip), vehicle: suspension in saline, evaluated on day 20, higher T/C = larger tumour) 139 % of control. In addition, the survivor count under setting [1] is listed as 0 of 10 on day 20.

Turning to `Cc1cn(C2CC(F)C(CO)O2)c(=O)[nH]c1=O` (stereo unspecified), the survivor count (T/C endpoint: median tumor weight (est.), dose: 3600.0 mg/kg/injection, schedule: Q07DX002 (ip), vehicle: saline, higher T/C = larger tumour) is 6 of 10 on day 20.

Consider `Nc1ccc2c(c1)CN1C(=O)c3ccccc3C1=N2`, for which the survivor count by setting is: (T/C endpoint: median tumor weight (est.), dose: 100.0 mg/kg/injection, schedule: Q01DX008 (ip), vehicle: other, higher T/C = larger tumour) 0 of 10 on day 20; (T/C endpoint: median tumor weight (est.), dose: 200.0 mg/kg/injection, schedule: Q07DX002 (ip), vehicle: other, higher T/C = larger tumour) 4 of 10 on day 20; (T/C endpoint: median tumor weight (est.), dose: 400.0 mg/kg/injection, schedule: Q07DX002 (ip), vehicle: other, higher T/C = larger tumour) 0 of 10 on day 20; under setting [2], 4 of 10 on day 20.

`CCN(CC)CCOC(=O)Cc1cccc2c(=O)cc(-c3ccccc3)oc12`: the T/C by setting is: (T/C endpoint: median survival time, dose: 12.5 mg/kg/injection, schedule: Q01DX001 (iv), vehicle: saline, higher T/C = longer survival) 127 % of control; (T/C endpoint: median survival time, dose: 112.5 mg/kg/injection, schedule: Q01DX001 (ip), vehicle: saline, higher T/C = longer survival) 145 % of control; (T/C endpoint: median tumor weight (est.), dose: 21.09 mg/kg/injection, schedule: Q07DX002 (iv), vehicle: saline, evaluated on day 20, higher T/C = larger tumour) 130 % of control; (T/C endpoint: median tumor weight (est.), dose: 37.5 mg/kg/injection, schedule: Q01DX001 (iv), vehicle: saline, evaluated on day 20, higher T/C = larger tumour) 137 % of control [9 of 10 alive on day 20]; (T/C endpoint: median tumor weight (est.), dose: 50.0 mg/kg/injection, schedule: Q07DX002 (ip), vehicle: saline, evaluated on day 20, higher T/C = larger tumour) 1, 52 [8 of 10 alive on day 20], 57 [9 of 10 alive on day 20], 71 % of control [7 of 10 alive on day 20]; (T/C endpoint: median tumor weight (est.), dose: 63.3 mg/kg/injection, schedule: Q01DX008 (ip), vehicle: saline, evaluated on day 20, higher T/C = larger tumour) 140 % of control [9 of 10 alive on day 20]. Further, the T/C (T/C endpoint: median tumor weight (est.), dose: 100.0 mg/kg/injection, schedule: Q07DX002 (ip), vehicle: saline, evaluated on day 20, higher T/C = larger tumour) was 38, 64, 82 [8 of 10 alive on day 20], 95, 205 % of control. For the same compound, the survivor count runs as follows: (T/C endpoint: median survival time, dose: 12.5 mg/kg/injection, schedule: Q07DX002 (iv), vehicle: saline, higher T/C = longer survival) 8 of 10 on day 20; (T/C endpoint: median survival time, dose: 15.82 mg/kg/injection, schedule: Q01DX001 (iv), vehicle: saline, higher T/C = longer survival) 10 of 10 on day 20; (T/C endpoint: median survival time, dose: 25.0 mg/kg/injection, schedule: Q01DX001 (iv), vehicle: saline, higher T/C = longer survival) 9 of 10 on day 20; (T/C endpoint: median survival time, dose: 50.0 mg/kg/injection, schedule: Q01DX001 (iv), vehicle: saline, higher T/C = longer survival) 6 of 10 on day 20; (T/C endpoint: median survival time, dose: 50.0 mg/kg/injection, schedule: Q07DX002 (iv), vehicle: saline, higher T/C = longer survival) 2 of 10 on day 20 and 6 of 10 on day 20; (T/C endpoint: median survival time, dose: 355.6 mg/kg/injection, schedule: Q07DX002 (ip), vehicle: saline, higher T/C = longer survival) 4 of 10 on day 20 and 6 of 10 on day 20. Besides, the survivor count reads like this: (T/C endpoint: median tumor weight (est.), dose: 50.0 mg/kg/injection, schedule: Q01DX001 (iv), vehicle: saline, higher T/C = larger tumour) 6 of 10 on day 20; (T/C endpoint: median tumor weight (est.), dose: 50.0 mg/kg/injection, schedule: Q07DX002 (iv), vehicle: saline, higher T/C = larger tumour) 2 of 10 on day 20 and 6 of 10 on day 20; (T/C endpoint: median tumor weight (est.), dose: 63.3 mg/kg/injection, schedule: Q03HX024 (ip), vehicle: saline, higher T/C = larger tumour) 2 of 10 on day 20; (T/C endpoint: median tumor weight (est.), dose: 84.4 mg/kg/injection, schedule: Q03HX024 (ip), vehicle: saline, higher T/C = larger tumour) 0 of 10 on day 20; (T/C endpoint: median tumor weight (est.), dose: 112.5 mg/kg/injection, schedule: Q03HX024 (ip), vehicle: saline, higher T/C = larger tumour) 0 of 10 on day 20; (T/C endpoint: median tumor weight (est.), dose: 112.5 mg/kg/injection, schedule: Q06HX016 (ip), vehicle: saline, higher T/C = larger tumour) 5 of 10 on day 20. Moreover, the survivor count runs as follows: (T/C endpoint: median tumor weight (est.), dose: 150.0 mg/kg/injection, schedule: Q03HX006 (ip), vehicle: saline, higher T/C = larger tumour) 4 of 10 on day 20; (T/C endpoint: median tumor weight (est.), dose: 150.0 mg/kg/injection, schedule: Q06HX016 (ip), vehicle: saline, higher T/C = larger tumour) 0 of 10 on day 20; (T/C endpoint: median tumor weight (est.), dose: 200.0 mg/kg/injection, schedule: Q01DX008 (ip), vehicle: saline, higher T/C = larger tumour) 3 of 10 on day 20; (T/C endpoint: median tumor weight (est.), dose: 200.0 mg/kg/injection, schedule: Q03HX006 (ip), vehicle: saline, higher T/C = larger tumour) 1 of 10 on day 20; (T/C endpoint: median tumor weight (est.), dose: 266.7 mg/kg/injection, schedule: Q06HX004 (ip), vehicle: saline, higher T/C = larger tumour) 5 of 10 on day 20; (T/C endpoint: median tumor weight (est.), dose: 355.6 mg/kg/injection, schedule: Q06HX004 (ip), vehicle: saline, higher T/C = larger tumour) 0 of 10 on day 20. Besides, where the note is “T/C endpoint: median tumor weight (est.), dose: 355.6 mg/kg/injection, schedule: Q07DX002 (ip), vehicle: saline, higher T/C = larger tumour”, the survivor count is 4 of 10 on day 20 and 6 of 10 on day 20.

`O=c1[nH]cccc1O`: for the setting “T/C endpoint: median tumor weight (est.), dose: 62.5 mg/kg/injection, schedule: Q07DX002 (ip), vehicle: saline with Tween-80, evaluated on day 20, higher T/C = larger tumour”, the T/C was 147 % of control. Also, the survivor count (T/C endpoint: median tumor weight (est.), dose: 1000.0 mg/kg/injection, schedule: Q07DX002 (ip), vehicle: saline with Tween-80, higher T/C = larger tumour) is listed as 6 of 10 on day 20.

On to `O=S(=O)([O-])c1ccc(-c2c3nc(c(-c4ccc(S(=O)(=O)[O-])cc4)c4ccc([n-]4)c(-c4ccc(S(=O)(=O)[O-])cc4)c4nc(c(-c5ccc(S(=O)(=O)[O-])cc5)c5ccc2[n-]5)C=C4)C=C3)cc1.[Mn+3].[Na+]`, for which the T/C (T/C endpoint: median tumor weight change, dose: 767.0 mg/kg/injection, schedule: Q07DX002 (iv), vehicle: water, evaluated on day 28, higher T/C = larger tumour) is 138 % of control.

Consider `O=[N+]([O-])c1ccc(N2CCOCC2)c2c1no[n+]2[O-]`, for which the T/C (T/C endpoint: median tumor weight (est.), dose: 25.0 mg/kg/injection, schedule: Q07DX002 (ip), vehicle: saline with Tween-80, evaluated on day 20, higher T/C = larger tumour) is 125 % of control. Besides, under setting [2], the survivor count was 3 of 10 on day 20.

`O=C(O)C(O)C(O)C1[O][Sb][O]C1C(=O)O` (stereo unspecified): for the setting “T/C endpoint: median tumor weight (est.), dose: 200.0 mg/kg/injection, schedule: Q07DX002 (ip), vehicle: saline, higher T/C = larger tumour”, the survivor count was 0 of 10 on day 20.

Turning to `COc1ccc2cc1Oc1ccc(cc1)C[C@H]1c3cc(c(OC)cc3CCN1C)Oc1c(OC)c(OC)cc3c1[C@H](C2)N(C)CC3`, the T/C (T/C endpoint: median tumor weight (est.), dose: 300.0 mg/kg/injection, schedule: Q07DX002 (ip), vehicle: saline with Tween-80, evaluated on day 20, higher T/C = larger tumour) was 131 % of control. Also, the survivor count (T/C endpoint: median tumor weight (est.), dose: 600.0 mg/kg/injection, schedule: Q07DX002 (ip), vehicle: saline with Tween-80, higher T/C = larger tumour) is given as 3 of 10 on day 20 and the survivor count (T/C endpoint: median tumor weight (est.), dose: 1200.0 mg/kg/injection, schedule: Q07DX002 (ip), vehicle: saline with Tween-80, higher T/C = larger tumour) was 2 of 10 on day 20.

On to `O=c1[nH]cnc2[nH]ncc12`, for which the survivor count runs as follows: (T/C endpoint: median tumor weight (est.), dose: 200.0 mg/kg/injection, schedule: Q07DX002 (ip), vehicle: suspension in saline, higher T/C = larger tumour) 4 of 10 on day 20; (T/C endpoint: median tumor weight (est.), dose: 400.0 mg/kg/injection, schedule: Q07DX002 (ip), vehicle: suspension in saline, higher T/C = larger tumour) 3 of 10 on day 20; under setting [1], 4 of 10 on day 20.

Turning to `Cc1c(N)nc(C(CC(N)=O)NCC(N)C(N)=O)nc1C(=O)NC(C(=O)NC(C)C(O)CC(=O)NC(C(=O)NC(OC1OC(C)C(N)C(O)C1O)C(O)c1nc(-c2nc(C(=O)NCCCC(N)CC(=O)NCCCNCCCCN)cs2)cs1)C(C)O)C(OC1OC(CO)C(O)C(O)C1OC1OC(CO)C(O)C(OC(N)=O)C1O)c1cnc[nH]1` (stereo unspecified), the survivor count (T/C endpoint: median tumor weight (est.), dose: 64.0 mg/kg/injection, schedule: Q07DX002 (ip), vehicle: saline, higher T/C = larger tumour) is 0 of 10 on day 20.
